No constants are given. Whether binding was seen depends on the method and setting. Some results given as binding are weak or reduced against the parent protein; the word gives no strength.
Assays:
[1] = molecular target: T1, murine prolactin receptor on cells (HEK293 and Ba/F3 cells stably transfected with murine PRLR) (mouse) (UniProt Q08501); assay: flow cytometry on HEK293 cells stably expressing murine PRLR, fixed concentration
T1 sequence (looked up): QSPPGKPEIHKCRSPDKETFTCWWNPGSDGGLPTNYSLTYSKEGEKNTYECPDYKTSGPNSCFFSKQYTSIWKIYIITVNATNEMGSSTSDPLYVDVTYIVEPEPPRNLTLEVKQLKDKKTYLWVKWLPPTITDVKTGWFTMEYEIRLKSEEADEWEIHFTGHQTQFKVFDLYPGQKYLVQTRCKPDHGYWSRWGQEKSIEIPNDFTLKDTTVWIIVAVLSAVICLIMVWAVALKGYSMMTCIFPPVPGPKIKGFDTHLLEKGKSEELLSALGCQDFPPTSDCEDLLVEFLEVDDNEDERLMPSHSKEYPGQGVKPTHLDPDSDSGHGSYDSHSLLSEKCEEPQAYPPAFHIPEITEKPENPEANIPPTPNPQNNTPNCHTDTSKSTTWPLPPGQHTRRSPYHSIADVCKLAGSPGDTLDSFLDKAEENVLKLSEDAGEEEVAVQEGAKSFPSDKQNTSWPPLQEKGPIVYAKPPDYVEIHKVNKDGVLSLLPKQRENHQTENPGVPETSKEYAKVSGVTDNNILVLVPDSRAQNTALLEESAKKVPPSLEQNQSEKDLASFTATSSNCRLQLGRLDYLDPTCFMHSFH

[2] = molecular target: T1, murine prolactin receptor on cells (HEK293 and Ba/F3 cells stably transfected with murine PRLR) (mouse); assay: flow cytometry (FACS) on HEK293 cells stably expressing murine PRLR, single concentration of 0.37 µg/ml IgG, detection with PE-conjugated goat anti-human IgG, median fluorescence intensity
[3] = molecular target: T2, extracellular domain of human PRLR (soluble, monomeric, expressed in HEK293 cells) (human) (UniProt P16471); assay: Biacore epitope grouping, antibody immobilized, soluble ECD-PRLR captured
T2 sequence: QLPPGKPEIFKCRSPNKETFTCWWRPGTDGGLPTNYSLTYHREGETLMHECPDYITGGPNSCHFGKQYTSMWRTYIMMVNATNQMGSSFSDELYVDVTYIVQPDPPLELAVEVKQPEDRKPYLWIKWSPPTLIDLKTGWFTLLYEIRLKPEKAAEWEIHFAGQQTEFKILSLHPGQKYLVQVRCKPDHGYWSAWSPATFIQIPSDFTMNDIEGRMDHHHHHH

[4] = molecular target: human prolactin receptor on cells (T47D cells; HEK293 and Ba/F cells stably transfected with human PRLR) (human) (UniProt P16471); assay: flow cytometry (FACS) on HEK293 cells stably expressing human PRLR, single concentration of 0.37 µg/ml IgG, detection with PE-conjugated goat anti-human IgG, median fluorescence intensity
[5] = molecular target: human prolactin receptor on cells (T47D cells; HEK293 and Ba/F cells stably transfected with human PRLR) (human) (UniProt P16471); assay: flow cytometry on HEK293 cells stably expressing human PRLR, fixed concentration

Measured: binding

B1: 001-E06 (IgG1) (antibody, V domains shown)
VH: QVELLESGGGLVQPGGSLRLSCAASGFTFSSYWMSWVRQAPGKGLEWVSSVSDTGTDTHYADSVKGRFTISRDNSKNTLYLQMNSLRAEDTAVYYCAKTPLAYSSGWYYFDYWGQGTLVTVSS
VL: DIVLTQPPSASGTPGQRVTISCSGSSSNIGSNTVNWYQQLPGTAPKLLIYRNYQRPSGVPDRFSGSKSGTSASLAISGLRSEDEADYYCQSYDSSLSGSVFGGGTKLTVLG
binds: all assays above

— patent US20130022606A1
